Data on one molecule can be found in publication doi:10.1101/2020.02.18.954511.

These are yes or no findings as the source states them, for the method shown. Some results given as binding are weak or reduced against the parent protein; the word gives no strength.

In assay [1] the target is T1, diol dehydratase PduCDE (Salmonella enterica) (UniProt P37450).
T1 sequence 1: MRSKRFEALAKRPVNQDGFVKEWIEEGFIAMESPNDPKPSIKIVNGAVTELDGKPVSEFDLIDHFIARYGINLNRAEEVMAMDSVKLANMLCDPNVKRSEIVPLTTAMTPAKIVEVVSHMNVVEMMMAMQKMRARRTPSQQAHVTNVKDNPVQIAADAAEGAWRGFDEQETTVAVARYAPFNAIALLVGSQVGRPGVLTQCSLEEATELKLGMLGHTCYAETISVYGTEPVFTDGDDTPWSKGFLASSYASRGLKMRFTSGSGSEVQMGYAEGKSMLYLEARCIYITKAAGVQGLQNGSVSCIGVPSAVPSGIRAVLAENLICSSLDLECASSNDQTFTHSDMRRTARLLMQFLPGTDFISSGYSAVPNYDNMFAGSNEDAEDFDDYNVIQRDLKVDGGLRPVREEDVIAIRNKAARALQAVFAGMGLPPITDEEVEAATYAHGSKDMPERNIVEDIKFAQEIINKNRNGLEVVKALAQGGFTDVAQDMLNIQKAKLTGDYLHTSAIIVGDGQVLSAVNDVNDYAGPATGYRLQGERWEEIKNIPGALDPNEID
T1 sequence 2: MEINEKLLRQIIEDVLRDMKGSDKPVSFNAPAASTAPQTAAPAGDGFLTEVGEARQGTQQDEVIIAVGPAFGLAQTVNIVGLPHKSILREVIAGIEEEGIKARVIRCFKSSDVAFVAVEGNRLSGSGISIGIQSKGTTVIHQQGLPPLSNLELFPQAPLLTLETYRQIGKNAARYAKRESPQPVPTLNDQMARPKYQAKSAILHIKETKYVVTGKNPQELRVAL
T1 sequence 3: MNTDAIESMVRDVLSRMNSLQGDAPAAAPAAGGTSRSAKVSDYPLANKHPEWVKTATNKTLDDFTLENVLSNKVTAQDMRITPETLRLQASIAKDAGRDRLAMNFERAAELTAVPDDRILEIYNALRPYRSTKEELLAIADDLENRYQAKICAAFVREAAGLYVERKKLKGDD
The assay can be described thus: time-resolved fluorescence anisotropy. (In general: In fluorescence polarisation assays a small probe gives low polarisation when free and higher when bound to something large.)

The target of assay [2] is shell protein PduB’M38L (Salmonella enterica) (UniProt P37449). In words: dynamic light scattering.

B1: shell protein PduB’M38L (protein, UniProt P37449 1-270)
chain: MSSNELVEQIMAQVIARVATPEQQAIPGQPQPIRETALAEKSCSLTEFVGTAIGDTLGLVIANVDTALLDAMKLEKRYRSIGILGARTGAGPHIMAADEAVKATNTEVVSIELPRDTKGGAGHGSLIILGGNDVSDVKRGIEVALKELDRTFGDVYGNEAGHIELQYTARASYALEKAFGAPIGRACGIIVGAPASVGVLMADTALKSANVEVVAYSSPAHGTSFSNEAILVISGDSGAVRQAVTSAREIGKTVLATLGSEPKNDRPSYI
Take B1: the binding entry in assay [1] and in assay [2] was “binds weakly” throughout.
